Measured values published in publication PMC5433843.
These are yes or no findings as the source states them, for the method shown. Tags and fused reporters may be left off the sequences shown.

Sequences of proteins named here, by UniProt entry; tags and fusion partners are left off.
UniProt P12982: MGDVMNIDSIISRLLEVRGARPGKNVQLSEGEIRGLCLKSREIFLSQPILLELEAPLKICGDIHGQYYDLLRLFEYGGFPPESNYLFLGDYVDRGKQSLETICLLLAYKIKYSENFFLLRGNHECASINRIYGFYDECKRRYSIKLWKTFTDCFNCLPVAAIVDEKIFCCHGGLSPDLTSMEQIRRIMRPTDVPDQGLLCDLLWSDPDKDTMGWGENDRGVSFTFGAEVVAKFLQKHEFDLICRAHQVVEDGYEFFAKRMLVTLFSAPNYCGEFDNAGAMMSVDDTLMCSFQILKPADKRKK

Target: MBP-PP1-87B (Drosophila) (UniProt P12982)
Assay: pull-down; purified 6xHis-N-Mps1 fragments incubated with MBP or MBP-PP1-87B bound to amylose magnetic beads; column buffer 250 mM NaCl, 20 mM Tris-HCl pH 7.4, 1 mM EDTA, 1 mM DTT; 60 min, room temperature; western blot; both purified

B1: 6xHis-N-Mps1^K231A/F234A (domain or fragment, UniProt Q9VEH1 104-330)
chain: PSQELTNSNSNITTRRTPSAAPLKQSDSNLSFLGRFNDMGINCSSQGSPVANSEKQVAKKTAPTLQAAPSATERRPLQETETPLRNELPSTSKTKPDADFITPQVRTIGSTLAGKSRSAVSNDFRAQAVLAQTPMTVSRAAPVASDSISFSLCDTITESPDIPEPPKKAEPPKSQHPSKKSLDHVFRESDKDNVPDKVDNVEPKELVSIPAVAVPPEQPSHKTSNIL
binding: no binding
